Laboratory results from US20210122818A1 (BIOUNIVERSA S R L, published 2021).
Results are given in words; binding and its absence hold for the method and conditions named. Some entries that bind do so weakly or less than the wild type.

Chains of the proteins cited; added tags and fusions are not shown. Residues count along the entry.
UniProt O95817, residues 2-575: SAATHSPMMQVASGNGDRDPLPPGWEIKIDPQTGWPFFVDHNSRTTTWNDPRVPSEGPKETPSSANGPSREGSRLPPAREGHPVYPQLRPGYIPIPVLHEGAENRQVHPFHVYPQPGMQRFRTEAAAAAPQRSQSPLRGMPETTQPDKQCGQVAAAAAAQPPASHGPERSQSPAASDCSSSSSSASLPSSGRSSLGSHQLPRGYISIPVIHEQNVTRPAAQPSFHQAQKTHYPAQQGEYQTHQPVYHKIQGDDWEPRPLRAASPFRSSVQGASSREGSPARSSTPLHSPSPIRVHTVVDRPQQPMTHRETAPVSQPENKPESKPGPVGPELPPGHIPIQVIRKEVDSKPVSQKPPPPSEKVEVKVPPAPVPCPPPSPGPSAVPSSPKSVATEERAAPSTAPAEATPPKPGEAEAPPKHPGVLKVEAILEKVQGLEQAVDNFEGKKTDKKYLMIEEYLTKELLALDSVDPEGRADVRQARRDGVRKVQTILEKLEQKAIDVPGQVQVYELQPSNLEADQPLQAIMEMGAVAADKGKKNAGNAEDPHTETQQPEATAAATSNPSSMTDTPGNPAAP

Molecular target: T1, recombinant BAG3 full-length protein (UniProt O95817 2-575, limits assumed)
T1 construct: mature; also called rBAG3; E. Coli rBAG3
Test: blocking assay, flow cytometry: FITC-rBAG3 (40 µg/ml) binding to the surface of J774 A.1 macrophages with antibody at 3200 µg/ml

B1: AC-2 murine antibody (antibody, V domains shown)
VH: EVQLQQSGAELVKPGASVKLSCTASGFNIKDTYMYWVKQRPEQGLEWIGGVDPANGNTRYDPKFQGKATLTADTSSSTAYLQLSSLTSEDTAVYYCGRDGAMDYWGQGTSVTVSS
VL: DIVMSQSPSSLAVSVGEKVTMSCKSSQSLLYSSNQKNYLAWHQQKPGQSPKLLIYWASTRESGVPDRFTGSGSGTDFTLTISSVKAEDLAIYYCQQYYTYPLTFGAGTKLELK
notes: Murine hybridoma antibody; also called anti-BAG3 mouse antibody (AC2); murine anti-BAG AC-2 antibody
With B1 the binding was “binds”.
